Measurements: publication doi:10.1101/621367
No constants are given. Whether binding was seen depends on the method and setting. In cells and extracts the contact can be indirect. Some results given as binding are weak or reduced against the parent protein; the word gives no strength. Sequences can lack the tags named with a protein.

Protein sequences, listed by entry. Tags and fused reporters are not part of them.
UniProt O46036: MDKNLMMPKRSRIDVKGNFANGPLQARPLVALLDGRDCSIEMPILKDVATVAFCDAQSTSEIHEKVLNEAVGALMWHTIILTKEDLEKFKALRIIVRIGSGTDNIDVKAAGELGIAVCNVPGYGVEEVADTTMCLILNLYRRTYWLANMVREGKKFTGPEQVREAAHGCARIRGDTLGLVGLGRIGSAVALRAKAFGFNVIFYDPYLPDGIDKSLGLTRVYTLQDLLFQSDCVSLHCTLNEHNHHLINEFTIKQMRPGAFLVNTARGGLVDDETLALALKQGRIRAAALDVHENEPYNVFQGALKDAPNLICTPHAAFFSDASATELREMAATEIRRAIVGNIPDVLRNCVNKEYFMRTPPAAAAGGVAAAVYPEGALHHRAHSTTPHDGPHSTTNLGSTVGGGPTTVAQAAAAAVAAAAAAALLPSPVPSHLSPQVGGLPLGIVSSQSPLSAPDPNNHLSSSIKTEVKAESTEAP
UniProt P16371: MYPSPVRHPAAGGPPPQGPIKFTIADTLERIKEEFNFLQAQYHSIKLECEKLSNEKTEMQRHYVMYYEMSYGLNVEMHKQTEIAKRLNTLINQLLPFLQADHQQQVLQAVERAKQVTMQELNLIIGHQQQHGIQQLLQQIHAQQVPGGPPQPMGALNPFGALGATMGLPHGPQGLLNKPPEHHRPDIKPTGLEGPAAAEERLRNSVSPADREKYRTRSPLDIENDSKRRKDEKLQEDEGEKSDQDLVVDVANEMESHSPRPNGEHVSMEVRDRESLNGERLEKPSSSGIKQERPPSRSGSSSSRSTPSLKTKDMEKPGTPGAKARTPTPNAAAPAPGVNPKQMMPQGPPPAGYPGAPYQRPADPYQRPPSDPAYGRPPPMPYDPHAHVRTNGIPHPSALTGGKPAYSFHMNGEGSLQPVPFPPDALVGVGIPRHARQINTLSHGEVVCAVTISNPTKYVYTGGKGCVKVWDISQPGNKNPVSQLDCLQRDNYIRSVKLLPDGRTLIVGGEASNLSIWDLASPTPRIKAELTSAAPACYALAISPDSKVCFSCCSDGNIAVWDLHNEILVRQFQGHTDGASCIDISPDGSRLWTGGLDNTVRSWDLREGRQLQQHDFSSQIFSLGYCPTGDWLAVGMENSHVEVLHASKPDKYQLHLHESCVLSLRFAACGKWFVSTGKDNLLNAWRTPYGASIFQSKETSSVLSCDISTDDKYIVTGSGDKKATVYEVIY
UniProt P28159: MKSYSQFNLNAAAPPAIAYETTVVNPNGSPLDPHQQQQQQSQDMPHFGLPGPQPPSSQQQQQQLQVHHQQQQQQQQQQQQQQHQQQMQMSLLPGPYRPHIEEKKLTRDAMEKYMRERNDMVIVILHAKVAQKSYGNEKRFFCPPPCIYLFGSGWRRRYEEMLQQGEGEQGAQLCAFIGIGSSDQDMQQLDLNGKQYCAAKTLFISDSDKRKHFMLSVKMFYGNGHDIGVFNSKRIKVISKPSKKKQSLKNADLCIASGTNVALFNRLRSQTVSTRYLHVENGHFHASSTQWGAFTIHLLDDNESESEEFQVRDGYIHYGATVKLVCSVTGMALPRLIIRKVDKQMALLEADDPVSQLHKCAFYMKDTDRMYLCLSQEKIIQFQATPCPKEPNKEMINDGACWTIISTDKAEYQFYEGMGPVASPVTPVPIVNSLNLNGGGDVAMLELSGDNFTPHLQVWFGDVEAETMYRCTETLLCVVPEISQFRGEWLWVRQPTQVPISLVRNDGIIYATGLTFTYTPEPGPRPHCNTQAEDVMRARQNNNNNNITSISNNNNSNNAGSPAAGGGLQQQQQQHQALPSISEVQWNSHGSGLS

B1: His-tagged 116-aa segment of Strigamia maritima Su(H) (exons 2 and 3), wild type (domain or fragment)
chain: GQYDYPPPLASTYSREADLWNVNLATYSSAPTTCTGATPAPSVTGFYAQATGSNSVSPSSVSLTTLTPHFADNHPVDLSNSHRGEGGHLDLVRFQSDRVDAYKHANGLSVHIPDHHA
B2: His-tagged HLHmβ with the WRPW motif replaced by the … motif of Strigamia maritima Su(H) (protein, UniProt Q01069 1-191)
chain: MVLEMEMSKTYQYRKVMKPMLERKRRARINKCLDELKDIMVECLTQEGEHITRLEKADILELTVEHMKKLRAQKQLRLSSVTGGVSPSADPKLSIAESFRAGYVHAANEVSKTLAAVPGVSVDLGTQLMSHLGHRLNYLQVVVPSLPIGVPLQAPVEDQAMVTPPPSECDSLESGACSPAPSEASSTSGPMGSLTPPDKV
B3: His-tagged Drosophila melanogaster Hairless residues 192-389, wild type (domain or fragment)
chain: AVVAAAAGTAKIGKGSNSGGSFDMGRTPISTHGNNSWGGYGGRLQFFKDGKFILELARSKDGDKSGWVSVTRKTFRPPSAATSATVTPTSAVTTAYPKNENSTSLSFSDDNSSIQSSPWQRDQPWKQSRPRRGISKELSLFFHRPRNSTLGRAALRTAARKRRRPHEPLTTSEDQQPIFATAIKAENGDDTLKAEAAE
B4: His-tagged Parasteatoda tepidariorum cS-CAP residues 233-432, wild type (domain or fragment)
chain: TVNTEDPPKDSINFLDHSRVTDPCSAASETSLPQDVPATSTVGSLKFFLGGRLVLKLNAQQDGGSGNKCQWVQSNDLPKHSNHNKKDKHKKKFAPYSYSSSGTQKPLKKGDDTSAVPDCDPSGIKKPRLKEYETSENSALGLLLCSSSWTPPVADGQESIDVDDTSSKTSEGYISPILSNNSRTSKIDTIKHDFASNPNT
B5: His-tagged truncated HLHmβ lacking the WRPW motif (domain or fragment, UniProt Q01069 1-191)
chain: MVLEMEMSKTYQYRKVMKPMLERKRRARINKCLDELKDIMVECLTQEGEHITRLEKADILELTVEHMKKLRAQKQLRLSSVTGGVSPSADPKLSIAESFRAGYVHAANEVSKTLAAVPGVSVDLGTQLMSHLGHRLNYLQVVVPSLPIGVPLQAPVEDQAMVTPPPSECDSLESGACSPAPSEASSTSGPM

Key:
Assay in all cases: pull-down
[1] = molecular target: GST-tagged Drosophila CtBP (Drosophila melanogaster) (UniProt O46036)
[2] = molecular target: GST-tagged Drosophila Groucho (Drosophila melanogaster) (UniProt P16371)
[3] = molecular target: GST-Su(H) fusion protein (Drosophila melanogaster Suppressor of Hairless) (Drosophila melanogaster) (UniProt P28159)

| Binder | binding [2] | binding [3] | also measured |
| --- | --- | --- | --- |
| B1 | – | – | binding [1]: binds |
| B2 | binds | – | – |
| B3 | – | binds | – |
| B4 | – | binds | – |
| B5 | no binding | – | – |
